Results reported in US20120189633A1 (KOLLTAN PHARMACEUTICALS, published 2012).
These are yes or no findings as the source states them, for the method shown. Some entries that bind do so weakly or less than the wild type.

Protein sequences, listed by entry. Tags and fused reporters are not part of them. Residues count along the entry.
UniProt P10721, residues 26-524: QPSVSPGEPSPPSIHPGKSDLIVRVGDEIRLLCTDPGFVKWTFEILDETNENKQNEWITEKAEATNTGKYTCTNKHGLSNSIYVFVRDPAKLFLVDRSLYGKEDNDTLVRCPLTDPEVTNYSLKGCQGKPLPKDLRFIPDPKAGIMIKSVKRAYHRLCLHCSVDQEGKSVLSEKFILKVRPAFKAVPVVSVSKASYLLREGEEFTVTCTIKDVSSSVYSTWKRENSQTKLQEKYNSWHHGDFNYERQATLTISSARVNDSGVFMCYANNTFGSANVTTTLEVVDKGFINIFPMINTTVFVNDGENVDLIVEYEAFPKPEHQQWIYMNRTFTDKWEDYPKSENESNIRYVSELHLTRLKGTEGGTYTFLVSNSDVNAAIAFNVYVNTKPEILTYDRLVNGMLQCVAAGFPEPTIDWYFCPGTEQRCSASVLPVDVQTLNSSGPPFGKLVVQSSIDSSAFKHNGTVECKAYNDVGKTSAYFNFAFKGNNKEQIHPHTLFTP

Columns and labels:
[1] = target: KIT antigen containing the entire extracellular domain (D1-D5), glycosylated (UniProt P10721); assay: solid phase ELISA, untreated (glycosylated) KIT ECD antigen
[2] = target: de-glycosylated KIT antigen containing the entire extracellular domain (PNGase F-treated) (UniProt P10721); assay: solid phase ELISA, PNGase F-treated KIT ECD antigen
[3] = target: de-glycosylated KIT antigen containing the entire extracellular domain (PNGase F-treated) (UniProt P10721); assay: solid phase ELISA on coated PNGase F-treated KIT ECD antigen [panel C]
[4] = target: KIT antigen containing the entire extracellular domain (D1-D5), glycosylated (UniProt P10721); assay: solid phase ELISA on coated glycosylated KIT ECD antigen [panel C]

Measured: binding

B1: antibody 37M (antibody, V domains shown)
VH: QVQLKQSGAELVRPGASVKLSCKASGYTFTDYYINWVKQRPGQGLEWIARIYPGSGNTYYNEKFKGKATLTAEKSSSTAYMQLSSLTSEDSAVYFCARGVYYFDYWGQGTTLTVSS
VL: DIVMTQSQKFMSTSVGDRVSVTCKASQNVRTNVAWYQQKPGQSPKALIYSASYRYSGVPDRFTGSGSGTDFTLTISNVQSEDLADYFCQQYNSYPRTFGGGTKLEIKR
binds: all assays above
